The list shows a part of the results.
Tests used:
Experiment in all cases: log2 fold change, soluble protein after heating vs DMSO (PISA); higher = thermal stabilisation; K562 lysate, 10 uM; active = over 0.2 and 3.5 SD of the protein, either way, in both replicates (recomputed)
[1] = compound: CCCS(=O)(=O)Nc1ccc(F)c(C(=O)c2c[nH]c3ncc(Cl)cc23)c1F
Outline: (§1)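 Pellets of K562 cells were dounce-homogenised in PBS pH 7.4 with 1 mM MgCl2, and the crude extract was held at 1 mg/mL protein for a 30 min treatment with 10 μM compound. Aliquots were heated for 3 min over 48°C-58°C and pooled before NP-40 was added to 0.5% at 4°C. The supernatant from 21,000xg for 90 min was quantified by TMTpro 16plex LC-MS/MS with channel sums equalised. Values are reported from duplicates as log-two fold change in thermal stability relative to solvent controls.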

By UniProt entry, the sequences of proteins in these tests, tags left out. Where a name states a change or a piece, a line headed by the entry shows the natural chain unless it says otherwise.
UniProt Q96MY1: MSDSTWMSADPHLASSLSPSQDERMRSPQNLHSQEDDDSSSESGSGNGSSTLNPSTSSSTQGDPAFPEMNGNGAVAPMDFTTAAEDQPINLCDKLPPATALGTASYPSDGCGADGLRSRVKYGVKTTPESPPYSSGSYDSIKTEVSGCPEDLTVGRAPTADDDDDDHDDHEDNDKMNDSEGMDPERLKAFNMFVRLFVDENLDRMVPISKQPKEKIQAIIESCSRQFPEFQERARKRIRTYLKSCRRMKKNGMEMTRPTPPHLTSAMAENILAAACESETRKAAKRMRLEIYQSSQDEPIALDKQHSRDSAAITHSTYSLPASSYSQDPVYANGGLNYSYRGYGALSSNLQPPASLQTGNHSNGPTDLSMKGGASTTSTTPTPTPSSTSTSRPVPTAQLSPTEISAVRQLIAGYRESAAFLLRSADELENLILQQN
UniProt P55055, whole entry, looked up: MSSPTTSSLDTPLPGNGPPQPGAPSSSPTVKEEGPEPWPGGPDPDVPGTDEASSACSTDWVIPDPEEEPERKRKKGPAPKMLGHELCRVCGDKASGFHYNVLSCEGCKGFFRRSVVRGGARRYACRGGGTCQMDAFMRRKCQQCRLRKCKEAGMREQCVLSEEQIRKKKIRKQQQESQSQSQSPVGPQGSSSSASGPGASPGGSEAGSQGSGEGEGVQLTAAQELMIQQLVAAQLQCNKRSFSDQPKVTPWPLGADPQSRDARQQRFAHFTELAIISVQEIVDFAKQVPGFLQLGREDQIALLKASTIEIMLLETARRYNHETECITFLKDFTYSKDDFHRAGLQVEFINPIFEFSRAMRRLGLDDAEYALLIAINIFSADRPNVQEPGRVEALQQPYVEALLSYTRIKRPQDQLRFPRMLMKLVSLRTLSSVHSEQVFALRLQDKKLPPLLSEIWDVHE
UniProt Q96T66: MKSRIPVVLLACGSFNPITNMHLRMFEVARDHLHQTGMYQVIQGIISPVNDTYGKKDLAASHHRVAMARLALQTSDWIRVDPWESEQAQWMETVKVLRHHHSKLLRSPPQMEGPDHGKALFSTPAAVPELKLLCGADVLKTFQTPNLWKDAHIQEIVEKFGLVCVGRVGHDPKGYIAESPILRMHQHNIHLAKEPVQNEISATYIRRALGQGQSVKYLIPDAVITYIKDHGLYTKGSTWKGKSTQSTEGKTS
UniProt P69849: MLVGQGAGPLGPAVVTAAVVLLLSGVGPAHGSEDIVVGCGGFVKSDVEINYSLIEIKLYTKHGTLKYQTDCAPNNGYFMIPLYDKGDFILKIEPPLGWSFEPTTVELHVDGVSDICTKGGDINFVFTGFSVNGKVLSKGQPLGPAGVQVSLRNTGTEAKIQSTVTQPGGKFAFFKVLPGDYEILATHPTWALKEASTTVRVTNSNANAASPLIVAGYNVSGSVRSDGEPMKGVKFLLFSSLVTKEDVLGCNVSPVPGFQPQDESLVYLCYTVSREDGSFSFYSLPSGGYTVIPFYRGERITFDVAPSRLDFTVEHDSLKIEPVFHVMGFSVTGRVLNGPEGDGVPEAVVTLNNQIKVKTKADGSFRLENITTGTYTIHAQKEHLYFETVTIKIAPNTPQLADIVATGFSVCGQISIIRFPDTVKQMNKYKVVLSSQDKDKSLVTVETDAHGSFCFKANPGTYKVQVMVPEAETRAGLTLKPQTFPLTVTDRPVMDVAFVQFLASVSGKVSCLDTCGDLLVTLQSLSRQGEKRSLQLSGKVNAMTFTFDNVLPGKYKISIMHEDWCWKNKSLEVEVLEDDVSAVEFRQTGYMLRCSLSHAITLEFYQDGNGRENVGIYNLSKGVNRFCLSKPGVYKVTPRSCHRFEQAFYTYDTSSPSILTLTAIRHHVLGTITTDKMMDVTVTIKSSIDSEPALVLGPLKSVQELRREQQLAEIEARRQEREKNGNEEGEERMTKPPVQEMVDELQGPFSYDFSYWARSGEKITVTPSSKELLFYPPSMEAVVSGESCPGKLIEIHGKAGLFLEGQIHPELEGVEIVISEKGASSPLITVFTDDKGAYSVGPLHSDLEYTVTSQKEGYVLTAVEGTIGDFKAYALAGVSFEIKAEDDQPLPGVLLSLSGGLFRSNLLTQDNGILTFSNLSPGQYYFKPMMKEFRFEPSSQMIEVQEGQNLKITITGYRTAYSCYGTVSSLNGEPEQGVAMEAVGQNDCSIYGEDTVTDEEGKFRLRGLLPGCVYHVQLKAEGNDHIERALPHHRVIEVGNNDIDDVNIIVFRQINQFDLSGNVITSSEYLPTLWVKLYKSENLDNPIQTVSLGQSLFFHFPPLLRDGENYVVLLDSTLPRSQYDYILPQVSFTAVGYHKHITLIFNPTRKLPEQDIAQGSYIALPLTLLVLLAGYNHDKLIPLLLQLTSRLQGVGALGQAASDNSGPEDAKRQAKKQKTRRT
UniProt P24468: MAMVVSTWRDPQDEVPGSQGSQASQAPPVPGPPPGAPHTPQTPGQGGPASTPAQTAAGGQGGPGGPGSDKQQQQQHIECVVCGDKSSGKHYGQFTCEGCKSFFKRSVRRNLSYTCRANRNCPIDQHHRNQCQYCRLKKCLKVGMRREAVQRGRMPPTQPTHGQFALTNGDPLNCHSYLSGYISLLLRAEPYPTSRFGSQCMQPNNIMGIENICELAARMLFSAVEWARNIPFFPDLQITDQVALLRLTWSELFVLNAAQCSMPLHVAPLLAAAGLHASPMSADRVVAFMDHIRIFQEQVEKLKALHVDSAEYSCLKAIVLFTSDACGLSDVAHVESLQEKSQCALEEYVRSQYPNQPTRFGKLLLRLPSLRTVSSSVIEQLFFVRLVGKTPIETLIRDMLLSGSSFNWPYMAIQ
UniProt Q9UHK0: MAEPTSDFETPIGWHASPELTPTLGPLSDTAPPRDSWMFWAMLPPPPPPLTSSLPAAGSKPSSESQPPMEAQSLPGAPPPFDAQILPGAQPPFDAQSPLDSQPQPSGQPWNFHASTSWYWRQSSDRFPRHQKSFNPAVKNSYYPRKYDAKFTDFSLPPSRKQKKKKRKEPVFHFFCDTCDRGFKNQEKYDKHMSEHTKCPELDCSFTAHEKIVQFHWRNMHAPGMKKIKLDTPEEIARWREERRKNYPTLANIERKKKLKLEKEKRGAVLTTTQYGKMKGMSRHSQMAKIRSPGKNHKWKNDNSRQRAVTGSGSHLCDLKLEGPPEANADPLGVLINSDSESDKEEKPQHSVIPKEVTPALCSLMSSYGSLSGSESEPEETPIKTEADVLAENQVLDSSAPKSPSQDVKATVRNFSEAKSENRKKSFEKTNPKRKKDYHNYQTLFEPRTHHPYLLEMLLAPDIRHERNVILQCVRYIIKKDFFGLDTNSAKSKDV
UniProt Q9Y5A7: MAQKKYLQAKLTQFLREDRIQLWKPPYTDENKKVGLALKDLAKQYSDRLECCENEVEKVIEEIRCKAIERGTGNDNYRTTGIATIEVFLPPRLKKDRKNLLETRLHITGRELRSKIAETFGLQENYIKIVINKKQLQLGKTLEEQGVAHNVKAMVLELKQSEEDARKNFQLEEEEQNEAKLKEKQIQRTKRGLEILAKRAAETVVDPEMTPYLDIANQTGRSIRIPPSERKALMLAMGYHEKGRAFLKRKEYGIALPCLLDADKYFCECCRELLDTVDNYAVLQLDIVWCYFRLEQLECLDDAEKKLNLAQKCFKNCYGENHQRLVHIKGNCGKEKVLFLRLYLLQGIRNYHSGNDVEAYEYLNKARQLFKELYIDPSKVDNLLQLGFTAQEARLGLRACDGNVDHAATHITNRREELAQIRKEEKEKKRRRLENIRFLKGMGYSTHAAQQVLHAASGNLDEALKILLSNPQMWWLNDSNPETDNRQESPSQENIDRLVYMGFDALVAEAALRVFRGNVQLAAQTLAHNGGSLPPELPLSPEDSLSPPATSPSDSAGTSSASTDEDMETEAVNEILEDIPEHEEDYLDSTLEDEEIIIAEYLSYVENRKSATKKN
UniProt P48552: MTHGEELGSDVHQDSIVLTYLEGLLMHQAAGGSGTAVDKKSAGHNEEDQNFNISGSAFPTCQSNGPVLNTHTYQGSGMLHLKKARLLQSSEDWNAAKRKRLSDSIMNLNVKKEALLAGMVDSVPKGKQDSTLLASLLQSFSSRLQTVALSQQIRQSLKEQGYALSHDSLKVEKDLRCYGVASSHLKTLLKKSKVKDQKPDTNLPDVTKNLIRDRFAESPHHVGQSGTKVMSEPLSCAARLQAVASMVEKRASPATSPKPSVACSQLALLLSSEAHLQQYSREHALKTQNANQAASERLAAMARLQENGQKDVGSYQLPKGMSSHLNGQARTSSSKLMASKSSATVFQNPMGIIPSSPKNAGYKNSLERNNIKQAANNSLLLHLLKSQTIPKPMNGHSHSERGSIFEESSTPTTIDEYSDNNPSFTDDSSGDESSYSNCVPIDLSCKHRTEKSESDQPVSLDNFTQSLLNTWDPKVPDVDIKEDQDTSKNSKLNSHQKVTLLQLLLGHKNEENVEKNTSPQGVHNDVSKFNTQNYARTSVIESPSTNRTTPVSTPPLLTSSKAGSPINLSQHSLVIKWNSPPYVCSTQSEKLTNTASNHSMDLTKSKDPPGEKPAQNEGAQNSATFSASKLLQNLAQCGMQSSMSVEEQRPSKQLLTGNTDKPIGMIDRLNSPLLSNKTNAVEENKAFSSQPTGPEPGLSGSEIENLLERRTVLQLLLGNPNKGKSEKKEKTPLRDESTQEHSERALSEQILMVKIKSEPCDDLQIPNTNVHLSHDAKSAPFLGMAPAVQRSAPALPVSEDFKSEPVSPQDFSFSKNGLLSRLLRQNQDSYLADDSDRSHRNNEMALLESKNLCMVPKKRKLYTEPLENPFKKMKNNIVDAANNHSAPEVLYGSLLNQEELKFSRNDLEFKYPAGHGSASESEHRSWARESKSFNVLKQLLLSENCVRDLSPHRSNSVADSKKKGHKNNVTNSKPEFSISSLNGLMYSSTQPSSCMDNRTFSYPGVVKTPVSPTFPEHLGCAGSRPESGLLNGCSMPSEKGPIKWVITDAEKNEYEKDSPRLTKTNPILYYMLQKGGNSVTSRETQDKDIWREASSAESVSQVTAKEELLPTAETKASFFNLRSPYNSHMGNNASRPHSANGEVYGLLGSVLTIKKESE
UniProt Q8WTW4: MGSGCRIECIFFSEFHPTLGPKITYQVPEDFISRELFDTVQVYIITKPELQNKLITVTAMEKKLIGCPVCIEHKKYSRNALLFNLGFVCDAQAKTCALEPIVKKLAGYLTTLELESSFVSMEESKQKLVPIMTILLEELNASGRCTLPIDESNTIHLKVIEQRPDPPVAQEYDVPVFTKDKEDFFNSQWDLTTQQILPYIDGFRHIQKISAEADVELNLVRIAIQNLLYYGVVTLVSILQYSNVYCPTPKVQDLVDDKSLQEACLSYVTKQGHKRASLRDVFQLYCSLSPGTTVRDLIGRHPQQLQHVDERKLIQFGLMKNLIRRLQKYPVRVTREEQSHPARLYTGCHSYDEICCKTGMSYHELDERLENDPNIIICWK
UniProt Q12980: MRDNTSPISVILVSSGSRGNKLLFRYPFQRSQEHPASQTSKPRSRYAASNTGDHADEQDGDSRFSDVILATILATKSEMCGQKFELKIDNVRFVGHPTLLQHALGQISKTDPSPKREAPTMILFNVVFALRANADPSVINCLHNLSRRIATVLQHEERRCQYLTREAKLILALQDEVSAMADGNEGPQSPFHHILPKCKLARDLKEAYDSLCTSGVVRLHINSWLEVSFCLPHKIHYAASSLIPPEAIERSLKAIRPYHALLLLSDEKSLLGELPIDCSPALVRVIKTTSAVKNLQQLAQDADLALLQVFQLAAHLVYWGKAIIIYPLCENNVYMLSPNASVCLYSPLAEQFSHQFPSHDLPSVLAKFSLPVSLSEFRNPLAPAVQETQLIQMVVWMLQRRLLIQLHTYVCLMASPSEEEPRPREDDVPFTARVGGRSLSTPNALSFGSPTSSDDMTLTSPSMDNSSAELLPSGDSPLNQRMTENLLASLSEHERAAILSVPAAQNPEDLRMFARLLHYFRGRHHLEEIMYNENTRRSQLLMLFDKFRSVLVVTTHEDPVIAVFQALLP
UniProt P10588: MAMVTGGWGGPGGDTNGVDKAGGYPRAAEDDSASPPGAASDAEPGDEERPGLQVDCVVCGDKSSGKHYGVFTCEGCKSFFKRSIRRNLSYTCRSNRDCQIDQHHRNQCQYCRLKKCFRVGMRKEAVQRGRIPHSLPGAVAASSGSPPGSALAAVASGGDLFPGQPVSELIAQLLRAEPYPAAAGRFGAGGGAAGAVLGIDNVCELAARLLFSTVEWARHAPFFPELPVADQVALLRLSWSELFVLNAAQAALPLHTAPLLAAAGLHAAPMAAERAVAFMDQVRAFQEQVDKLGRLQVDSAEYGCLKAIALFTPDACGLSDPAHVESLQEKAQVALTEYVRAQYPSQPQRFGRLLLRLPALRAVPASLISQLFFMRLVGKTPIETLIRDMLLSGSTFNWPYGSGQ

[2] = compound: CC[C@@H]1C(=O)N(C)c2cnc(Nc3ccc(C(=O)NC4CCN(C)CC4)cc3OC)nc2N1C1CCCC1
Outline: as §1

volasertib = compound: CC[C@@H]1C(=O)N(C)c2cnc(Nc3ccc(C(=O)N[C@H]4CC[C@H](N5CCN(CC6CC6)CC5)CC4)cc3OC)nc2N1C(C)C [volasertib]
Outline: as §1

[3] = compound: CCn1c(C(=O)N(C2CC2)C2CC2)cc2c3c(ncn3C)c(Nc3cc(C)n(C)n3)nc21
Outline: as §1

[4] = compound: CCn1cc(-c2ccnc3[nH]c(-c4cccc(CN(C)C)c4)cc23)c(-c2ccc(NC(=O)N(C)C)cc2)n1
Outline: as §1

[5] = compound: CN1CCC(CNc2ccc3ncc(-c4cccc(OC(F)(F)F)c4)n3n2)CC1
Outline: as §1

saracatinib = compound: CN1CCN(CCOc2cc(OC3CCOCC3)c3c(Nc4c(Cl)ccc5c4OCO5)ncnc3c2)CC1 [saracatinib]
Outline: as §1

alvocidib = compound: CN1CC[C@H](c2c(O)cc(O)c3c(=O)cc(-c4ccccc4Cl)oc23)[C@H](O)C1 [alvocidib]
Outline: as §1

Tubastatin A = compound: CN1CCc2c(c3ccccc3n2Cc2ccc(C(=O)NO)cc2)C1 [Tubastatin A]
Outline: as §1

[6] = compound: CNC(=O)C1=CC=CC=C1NC2=NC(=NC=C2Cl)NC3=C(C=C(C=C3)N4CCOCC4)OC
Outline: as §1

[7] = compound: CNc1nc(-c2ccc3c(N)n[nH]c3c2)cc(N2C[C@@H](C(=O)NC3CCCCC3)CC[C@H]2C)n1
Outline: as §1

encorafenib = compound: COC(=O)N[C@@H](C)CNc1nccc(-c2cn(C(C)C)nc2-c2cc(Cl)cc(NS(C)(=O)=O)c2F)n1 [encorafenib]
Outline: as §1

[8] = compound: COC(=O)[C@H](CCSC)NC(=O)C1=C(C=C(C=C1)NC[C@H](CS)N)C2=CC=CC=C2
Outline: as §1

[9] = compound: COc1cc2nc(-c3cc(F)ccc3O)nc(N[C@@H]3CNC[C@H]3C(C)(C)O)c2cc1OC
Outline: as §1

barasertib = compound: CCN(CCCOc1ccc2c(Nc3cc(CC(=O)Nc4cccc(F)c4)[nH]n3)ncnc2c1)CCOP(=O)(O)O [barasertib]
Outline: as §1

sotrastaurin = compound: CN1CCN(c2nc(C3=C(c4c[nH]c5ccccc45)C(=O)NC3=O)c3ccccc3n2)CC1 [sotrastaurin]
Outline: as §1

alisertib = compound: COc1cc(Nc2ncc3c(n2)-c2ccc(Cl)cc2C(c2c(F)cccc2OC)=NC3)ccc1C(=O)O [alisertib]
Outline: as §1

gefitinib = compound: COc1cc2ncnc(Nc3ccc(F)c(Cl)c3)c2cc1OCCCN1CCOCC1 [gefitinib]
Outline: as §1

vemurafenib = compound: CCCS(=O)(=O)Nc1ccc(F)c(C(=O)c2c[nH]c3ncc(-c4ccc(Cl)cc4)cc23)c1F [vemurafenib]
Outline: as §1

defactinib = compound: CNC(=O)c1ccc(Nc2ncc(C(F)(F)F)c(NCc3nccnc3N(C)S(C)(=O)=O)n2)cc1 [defactinib]
Outline: as §1

Measured: log2 fold change

NOL4L (UniProt Q96MY1)
inactive: [1] 0.06 | [2] -0.051 | volasertib -0.131 | [3] 0.003 | [4] 0.087 | [5] 0.065 | saracatinib 0.09 | alvocidib 0.068 | Tubastatin A -0.081 | [6] 0.026 | [7] -0.047 | encorafenib -0.066 | [8] 0.02 | [9] 0.044

NR1H2 (UniProt P55055)
inactive: [3] 0.179 | Tubastatin A -0.034

NT5C (UniProt J3KSX6)
inactive: [1] 0.117 | barasertib -0.079 | volasertib 0.21 | [9] -0.199

NMNAT3 (UniProt Q96T66)
inactive: barasertib -0.194

NPLOC4 (UniProt I3L3I1)
inactive: barasertib 0.125 | [2] 0.104 | saracatinib 0.152 | sotrastaurin -0.108 | [7] 0.799 | encorafenib 0.014 | [8] -0.143

NUMB isoform 2 (UniProt P49757)
inactive: [3] -0.146 | saracatinib -0.04 | Tubastatin A -0.112 | [7] 0.158 | alisertib 0.092 | gefitinib -0.277

NOMO3 (UniProt P69849)
inactive: [1] 0.032 | volasertib -0.015 | [3] -0.071 | saracatinib -0.039 | sotrastaurin 0.006 | Tubastatin A 0.044 | [6] -0.209 | [7] -0.027 | alisertib -0.015 | [9] 0.137 | gefitinib 0.034

NT5C2 (UniProt Q5JUV3)
inactive: [2] 0.096 | saracatinib 0.027 | sotrastaurin 0.078 | [7] 0.024 | encorafenib 0.021 | [8] -0.258

NSDHL (UniProt C9JDR0)
inactive: [1] 0.018 | volasertib 0.135 | alisertib -0.05 | [9] -0.132 | gefitinib -0.109

NUDT14 (UniProt O95848)
inactive: [1] 0.091 | barasertib 0.008 | volasertib -0.038 | [3] 0.079 | [4] -0.104 | [5] 0 | saracatinib 0.04 | sotrastaurin 0.072 | alvocidib 0.105 | Tubastatin A -0.153 | [6] -0.159 | [7] 0.006 | [9] 0.018

NR2F2 (UniProt P24468)
inactive: [1] -0.081 | barasertib 0.01 | volasertib -0.146 | [3] -0.028 | [4] 0.005 | [5] -0.216 | saracatinib 0.014 | sotrastaurin 0.013 | alvocidib -0.053 | Tubastatin A -0.154 | [6] 0.056 | [7] -0.047 | alisertib 0.072 | [9] 0.012 | gefitinib -0.077

NTRK1 (UniProt P04629)
inactive: vemurafenib 0.121 | [3] 0.014 | [4] -0.177 | [5] 0.111 | saracatinib 0.064 | sotrastaurin -0.015 | alvocidib -0.387 | Tubastatin A 0.018 | defactinib -0.019 | [7] -0.088 | encorafenib 0 | [8] -0.2

Retrieved one by one from the entries so far, 2 records:
NUDT14 (UniProt O95848)
inactive: [1] 0.091 | barasertib 0.008 | volasertib -0.038 | [3] 0.079 | [4] -0.104 | [5] 0 | saracatinib 0.04 | sotrastaurin 0.072 | alvocidib 0.105 | Tubastatin A -0.153 | [6] -0.159 | [7] 0.006 | [9] 0.018

NT5C2 (UniProt Q5JUV3)
inactive: [2] 0.096 | saracatinib 0.027 | sotrastaurin 0.078 | [7] 0.024 | encorafenib 0.021 | [8] -0.258

Next records:

NUFIP1 (UniProt Q9UHK0)
inactive: barasertib -0.109 | [2] 0.003 | [3] -0.097 | [4] 0.041 | [5] -0.033 | saracatinib 0.002 | sotrastaurin -0.002 | alvocidib 0.033 | Tubastatin A -0.019 | [7] -0.068 | encorafenib -0.011 | [8] 0.028 | alisertib -0.077 | gefitinib 0.243

NUB1 isoform 2 (UniProt Q9Y5A7)
inactive: sotrastaurin -0.003

NRIP1 (UniProt P48552)
active: [4] -0.651
inactive: [1] 0.024 | barasertib 0.076 | volasertib -0.055 | [3] -0.124 | [5] 0.17 | saracatinib -0.071 | sotrastaurin -0.074 | alvocidib -0.145 | Tubastatin A 0.001 | [6] -0.096 | [7] 0.291 | alisertib -0.21 | [9] 0.04 | gefitinib -0.011

NRSN2 (UniProt Q9GZP1)
inactive: saracatinib -0.177 | [7] -0.114

NPRL2 (UniProt Q8WTW4)
inactive: sotrastaurin -0.132 | alisertib -0.151 | gefitinib -0.047

NOCT (UniProt Q9UK39)
inactive: [1] -0.04 | [2] 0 | volasertib 0.02 | [3] 0.004 | saracatinib -0.103 | sotrastaurin -0.073 | Tubastatin A 0.012 | [6] 0.159 | [7] 0.042 | encorafenib 0.046 | [8] -0.01 | alisertib 0.009 | [9] -0.144 | gefitinib -0.088

NPRL3 (UniProt Q12980)
inactive: vemurafenib 0.018 | [3] 0.12 | [4] -0.164 | [5] 0.033 | sotrastaurin 0.057 | alvocidib -0.029 | Tubastatin A 0.027 | [6] 0.102 | defactinib 0.092 | alisertib -0.058 | gefitinib -0.015

NR2F6 (UniProt P10588)
inactive: [2] 0.099 | [3] -0.024 | saracatinib -0.123 | sotrastaurin 0.002 | Tubastatin A 0.007 | [7] -0.159 | encorafenib 0.208 | [8] -0.223 | alisertib -0.009 | gefitinib -0.096

— the supplement of paper PMC10849652
